These results are taken from PMC11065694.

Chains of the proteins cited; added tags and fusions are not shown. Residues count along the entry.
UniProt P05106, residues 27-788: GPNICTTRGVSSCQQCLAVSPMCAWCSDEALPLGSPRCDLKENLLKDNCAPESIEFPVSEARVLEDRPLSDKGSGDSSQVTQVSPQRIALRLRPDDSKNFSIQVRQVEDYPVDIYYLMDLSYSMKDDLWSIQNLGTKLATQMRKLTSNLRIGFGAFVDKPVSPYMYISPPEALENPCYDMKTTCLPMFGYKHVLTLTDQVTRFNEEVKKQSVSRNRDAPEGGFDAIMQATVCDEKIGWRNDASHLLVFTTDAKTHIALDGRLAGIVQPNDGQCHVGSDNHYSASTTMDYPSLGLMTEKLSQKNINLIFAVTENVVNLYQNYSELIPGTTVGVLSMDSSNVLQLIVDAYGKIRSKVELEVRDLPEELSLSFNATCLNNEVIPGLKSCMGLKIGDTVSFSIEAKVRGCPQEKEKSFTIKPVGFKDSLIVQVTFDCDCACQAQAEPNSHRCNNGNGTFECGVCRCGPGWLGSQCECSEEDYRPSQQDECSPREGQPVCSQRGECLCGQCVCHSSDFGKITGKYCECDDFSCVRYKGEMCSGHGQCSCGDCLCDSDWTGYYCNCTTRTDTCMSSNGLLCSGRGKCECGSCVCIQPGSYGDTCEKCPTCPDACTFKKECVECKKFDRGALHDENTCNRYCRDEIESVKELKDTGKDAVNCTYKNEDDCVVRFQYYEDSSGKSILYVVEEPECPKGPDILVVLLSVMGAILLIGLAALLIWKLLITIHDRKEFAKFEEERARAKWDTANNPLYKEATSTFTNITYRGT

No constants are given. Whether binding was seen depends on the method and setting. Binding seen in cells or lysates may run through a third protein. Some entries that bind do so weakly or less than the wild type.

For this test, the target named is CD61-flag (integrin β3) (human) (UniProt P05106). The experiment in a line: co-IP; anti-FLAG beads on pre-cleared lysates of integrin-transduced primary CD8+ T cells; Pierce IP Lysis Buffer (25 mM Tris pH 7.4, 150 mM NaCl, 1% Nonidet P-40, 1 mM EDTA, 5% glycerol); 4 °C overnight; eluted with 3X FLAG peptide; immunoblot with anti-CD103 and anti-FLAG. On the technique in general: Immunoblotting shows a protein as a band on a membrane.

B1: CD103 (integrin αE) (protein, UniProt P38570 19-1179)
chain: FNVDVARPWLTPKGGAPFVLSSLLHQDPSTNQTWLLVTSPRTKRTPGPLHRCSLVQDEILCHPVEHVPIPKGRHRGVTVVRSHHGVLICIQVLVRRPHSLSSELTGTCSLLGPDLRPQAQANFFDLENLLDPDARVDTGDCYSNKEGGGEDDVNTARQRRALEKEEEEDKEEEEDEEEEEAGTEIAIILDGSGSIDPPDFQRAKDFISNMMRNFYEKCFECNFALVQYGGVIQTEFDLRDSQDVMASLARVQNITQVGSVTKTASAMQHVLDSIFTSSHGSRRKASKVMVVLTDGGIFEDPLNLTTVINSPKMQGVERFAIGVGEEFKSARTARELNLIASDPDETHAFKVTNYMALDGLLSKLRYNIISMEGTVGDALHYQLAQIGFSAQILDERQVLLGAVGAFDWSGGALLYDTRSRRGRFLNQTAAAAADAEAAQYSYLGYAVAVLHKTCSLSYIAGAPRYKHHGAVFELQKEGREASFLPVLEGEQMGSYFGSELCPVDIDMDGSTDFLLVAAPFYHVHGEEGRVYVYRLSEQDGSFSLARILSGHPGFTNARFGFAMAAMGDLSQDKLTDVAIGAPLEGFGADDGASFGSVYIYNGHWDGLSASPSQRIRASTVAPGLQYFGMSMAGGFDISGDGLADITVGTLGQAVVFRSRPVVRLKVSMAFTPSALPIGFNGVVNVRLCFEISSVTTASESGLREALLNFTLDVDVGKQRRRLQCSDVRSCLGCLREWSSGSQLCEDLLLMPTEGELCEEDCFSNASVKVSYQLQTPEGQTDHPQPILDRYTEPFAIFQLPYEKACKNKLFCVAELQLATTVSQQELVVGLTKELTLNINLTNSGEDSYMTSMALNYPRNLQLKRMQKPPSPNIQCDDPQPVASVLIMNCRIGHPVLKRSSAHVSVVWQLEENAFPNRTADITVTVTNSNERRSLANETHTLQFRHGFVAVLSKPSIMYVNTGQGLSHHKEFLFHVHGENLFGAEYQLQICVPTKLRGLQVVAVKKLTRTQASTVCTWSQERACAYSSVQHVEEWHSVSCVIASDKENVTVAAEISWDHSEELLKDVTELQILGEISFNKSLYEGLNAENHRTKITVVFLKDEKYHSLPIIIKGSVGGLLVLIVILVILFKCGFFKRKYQQLNLESIRKAQLKSENLLEEEN
For the molecule B1, the binding result is listed as “binds”.
